Source: PubChem BioAssay AID504467 (National Center for Advancing Translational Sciences (NCATS), 2011)
Out of some 330,000 compounds screened, about 7,700 (2.3%) were called active. Inconclusive means that the source gave no clear call. Such entries were picked first, then a sample of the others. Calls follow the shape of the dose curve; as a rule, active = well fitted inhibition curve with a large enough effect; inconclusive = small, poorly fitted or top-dose-only effect, or effect the other way; inactive = flat fitted curve, though single readings scatter. Potencies beside an inconclusive call are fits to weak or partial responses and may not hold up.

Assay: qHTS screen for small molecules that inhibit ELG1-dependent DNA repair in human embryonic kidney (HEK293T) cells expressing luciferase-tagged ELG1; also: nearly all actives have a fitted effect of over 55% in size
Details: HEK293T ELG1-luciferase reporter, luminescence, 16 h, DNA damage induced by 5-fluorouridine; series mostly up to 46.1 µM
Outline: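 Overnight (16 hr) co-exposure of 2,000 cells/well to 5-fluorouridine and compound at 37 °C preceded detection. Luciferase was quantified via ONE-Glo luminescence; loss of signal denotes inhibition.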
Potency is read from the fitted curve at half-maximal effect.

Row | SMILES | Potency
1 | COc1ccc(NC(=S)N(CCC(C)C)C2CCN(C(C)C)CC2)cc1 | inactive
2 | CNc1oc(-c2cccc3ccccc23)nc1C#N | inconclusive: 18.4 µM [activator, partial curve, poor fit]
3 | Cc1cc(NC(=O)CSc2nc3c([nH]c4ccccc43)c(=O)n2-c2cccc(C(F)(F)F)c2)no1 | inconclusive: 5.17 µM [inhibitor, full curve]
4 | CCCCn1c(SCC(=O)NCc2ccco2)nnc1-c1ccco1 | inconclusive: 6.51 µM [inhibitor, partial curve, poor fit]
5 | O=C(C[C@@H]1C/C=C\CCC(=O)OC[C@@H]2CCCN2C1=O)NCCO | inconclusive: 20.6 µM [activator, single point]
6 | COC(=O)Nc1ccc(S(=O)(=O)N2CCC(C(=O)N3CCCC(C)C3)CC2)cc1 (centres undefined) | inactive
7 | Cc1ccccc1-c1cc(C(=O)NCc2cccc(Br)c2)n(CC2CC(c3cccnc3)=NO2)n1 (centres undefined) | inconclusive: 7.3 µM [inhibitor, partial curve]
8 | O=C(/C=C/c1ccc(Cl)cc1)NC(=S)Nc1ccc(NC(=O)c2ccco2)cc1 | inconclusive: 18.4 µM [activator, partial curve, poor fit]
9 | CCC(C(=O)N1CCOCC1)n1c2ccccc2c2nc(=O)cc(C)n21 (centres undefined) | inactive
10 | O=C(OCCN1CCCCC1)c1c[nH]c2ccccc12 | inconclusive: 8.91 µM [activator, partial curve, poor fit]
11 | COc1ccc(/C=C/C(=O)Nc2ccc(-c3nnc4n3CCCCC4)cc2)c(OC)c1 | active: 23.1 µM
12 | Cc1ccc(NC(=O)Cn2c(=O)c3cccn3c3ccccc32)c(Cl)c1 | inactive
13 | N#CCC(=O)N/N=C\c1ccccc1OC/C=C/c1ccccc1 | inconclusive: 9.2 µM [activator, partial curve]
14 | O=C(COC(=O)/C=C/c1ccc(S(=O)(=O)N2CCOCC2)cc1)NCc1ccc(Cl)cc1 | inactive
15 | CCc1ccc(S(=O)(=O)N(C(=O)c2ccncc2)c2ccc(OC(=O)c3ccncc3)cc2)cc1 | inconclusive: 11.6 µM [inhibitor, partial curve]
16 | CCc1ccc(NC(=O)C2CCN(S(=O)(=O)c3ccc4[nH]c(=O)ccc4c3)CC2)cc1 | inactive
17 | COc1ccc(/C=C/C(=O)c2cc3c(cc2N)OCO3)cc1 | inconclusive: 20.6 µM [activator, partial curve]
18 | CN1CCN(Cc2cccc(Oc3ccc(Cl)cc3)c2)CC1 | inconclusive: 18.4 µM [activator, single point]
19 | CC1CCC(C(C)C)C(OP(=O)(c2ccc(N(C)C)cc2)C(O)c2cccnc2)C1 (centres undefined) | inactive
20 | COc1ccc(-c2cc(C(=O)Nc3c(C)nn(Cc4ccccc4Cl)c3C)no2)cc1OC | active: 23.1 µM
21 | COc1ccc(S(=O)(=O)N2CCCCCC2)cc1C(=O)OCc1c(C)noc1C | inconclusive: 25.9 µM [inhibitor, single point]
22 | O=S(=O)(c1cccc(S(=O)(=O)N2CCC(n3nnc4ccccc43)CC2)c1)N1CCCCC1 | inconclusive: 25.9 µM [inhibitor, partial curve, poor fit]
23 | COc1cccc(/C=C/C(=O)OCC(=O)NCc2ccc3c(c2)OCO3)c1 | inactive

Row | SMILES | Potency
24 | COc1ccc2nc3oc(C(=O)N4CCN(c5cccc(C(F)(F)F)c5)CC4)cc3cc2c1 | inconclusive: 25.9 µM [activator, partial curve, poor fit]
25 | Cc1ccccc1N1CCN(C2CCCN(C(=O)c3cn4cccc(C)c4n3)C2)CC1 (centres undefined) | inconclusive: 2.31 µM [inhibitor, partial curve, poor fit]
26 | CCOc1ccccc1N1CCN(C(=S)NCc2ccc(Cl)cc2)CC1 | inconclusive: 16.4 µM [inhibitor, single point]
27 | CC(C)Oc1ccc(C(=O)Nc2ccc(S(=O)(=O)N3CCN(C)CC3)cc2)cc1 | inconclusive: 11.2 µM [inhibitor, single point]
28 | c1cncc(CNc2ncnc3ccc(-c4cccnc4)cc23)c1 | inactive
29 | COCCOC(=O)/C(=C\c1cc(C(C)(C)C)c(O)c(C(C)(C)C)c1)C(C)=O | inconclusive: 23.1 µM [activator, single point]
30 | COC(=O)c1c(NC(=O)C2COc3ccccc3O2)sc2c1CCN(Cc1ccccc1)C2 (centres undefined) | inconclusive: 14.6 µM [inhibitor, partial curve]
31 | O=C(O)c1ccc2c(=O)n(-c3ccccc3F)c(=S)[nH]c2c1 | inactive
32 | O=C(Nc1ccc2nc3n(c(=O)c2c1)CCCCC3)c1c(F)ccc([N+](=O)[O-])c1F | inconclusive: 29.1 µM [inhibitor, single point]
33 | O=c1c2cc(Cl)ccc2[nH]c(=S)n1Cc1ccco1 | inactive
34 | COc1ccc(S(=O)(=O)Nc2ccc(O)c3ccccc23)cc1 | active: 9.2 µM
35 | O=C(COc1ccc(F)cc1Cl)NC1CCCCCC1 | inconclusive: 12.6 µM [activator, partial curve]
36 | COCCCNC(=O)Cn1c(=O)n(Cc2ccc(F)cc2)c(=O)c2sccc21 | inactive
37 | COc1ccc2nc(NC(=O)c3cccs3)sc2c1 | inconclusive: 0.82 µM [activator, full curve]
38 | CC(=O)NCCCc1nc2ccccc2n1Cc1ccccc1C | inconclusive: 20.6 µM [activator, partial curve, poor fit]
39 | Cn1c(O)c(C=Nc2ccc(Br)cc2)sc1=O | inconclusive: 4.11 µM [activator, full curve]
40 | Cc1nn(C)c(=O)c(N)c1-c1cc(-c2ccc(Cl)c(Cl)c2)n[nH]1 | inactive
41 | Cc1ccccc1CS(=O)(=O)c1cn(CC(=O)N2CCC(C)CC2)c2ccccc12 | inconclusive: 25.9 µM [inhibitor, single point]
42 | NC(=O)C1CCN(C(=O)CSc2nc3ccccc3s2)CC1 | inconclusive: 23.1 µM [activator, partial curve, poor fit]
43 | Cc1cccc(Nc2nc3c(S(=O)(=O)c4ccccc4)nnn3c3ccccc23)c1C | inconclusive: 9.2 µM [activator, partial curve, poor fit]
44 | O=C(Cn1cnc([N+](=O)[O-])n1)NCCc1ccccc1 | inconclusive: 23.1 µM [activator, single point]
45 | O=c1[nH]c(COc2ccc(Br)cc2Cl)nc2ccccc12 | inconclusive: 18.3 µM [activator, partial curve]
46 | O=[N+]([O-])c1ccc(N2CCCCC2)cc1 | inconclusive: 29.1 µM [activator, partial curve, poor fit]

Some of the entries so far, as comma-separated lines:
Row,SMILES,Potency
25,Cc1ccccc1N1CCN(C2CCCN(C(=O)c3cn4cccc(C)c4n3)C2)CC1 (centres undefined),"inconclusive: 2.31 µM [inhibitor, partial curve, poor fit]"
26,CCOc1ccccc1N1CCN(C(=S)NCc2ccc(Cl)cc2)CC1,"inconclusive: 16.4 µM [inhibitor, single point]"
27,CC(C)Oc1ccc(C(=O)Nc2ccc(S(=O)(=O)N3CCN(C)CC3)cc2)cc1,"inconclusive: 11.2 µM [inhibitor, single point]"
28,c1cncc(CNc2ncnc3ccc(-c4cccnc4)cc23)c1,inactive
29,COCCOC(=O)/C(=C\c1cc(C(C)(C)C)c(O)c(C(C)(C)C)c1)C(C)=O,"inconclusive: 23.1 µM [activator, single point]"

Next structures follow.

Row | SMILES | Potency
47 | Oc1cc(-c2cccnc2)cc2cccnc12 | inconclusive: 20.6 µM [inhibitor, single point]
48 | CCCCCC(=O)Nc1cc(S(=O)(=O)N2CCOCC2)ccc1N1CCCCC1 | inactive
49 | CN(C)C(CNC(=O)CNC(=O)c1ccc(Br)cc1)c1ccccc1 (centres undefined) | inactive
50 | COc1ccc(CCC(=O)NNC(=O)c2cc(Cl)ccc2OC)cc1 | inactive
51 | CCOC(=O)c1c(NC(=O)CCN2CCOCC2)sc2c1CC(C)(C)OC2 | inconclusive: 13 µM [inhibitor, partial curve]
52 | COc1ccc(OCC(=O)Nc2nc3ccccc3[nH]2)cc1 | inconclusive: 10.3 µM [activator, partial curve]
53 | Cc1cc(Nc2ccc(C)c(F)c2)n2ncnc2n1 | inconclusive: 20.6 µM [activator, partial curve, poor fit]
54 | CC(C)(C)C(=O)Nc1nc2c(s1)CN(Cc1ccccc1)CC2 | inconclusive: 18.3 µM [activator, partial curve]
55 | CN(Cc1ccnc2ccccc12)C(=O)C1CCC(=O)N(Cc2ccccc2F)C1 (centres undefined) | inactive
56 | O=C(COC(=O)c1ccc(F)c(S(=O)(=O)N2CCOCC2)c1)NC1CC1 | inconclusive: 0.116 µM [inhibitor, full curve, poor fit]
57 | Cc1sc(NC(=O)CCCC(=O)O)c(C#N)c1C | inconclusive: 20.6 µM [activator, partial curve, poor fit]
58 | Cc1cc(C)c2c(c1)cc(C)c1nnc(SCC(=O)Nc3cc(C)on3)n12 | inconclusive: 20.6 µM [inhibitor, single point]
59 | CCc1nc(NCc2cccnc2)c2oc3ccccc3c2n1 | inconclusive: 20.6 µM [inhibitor, partial curve, poor fit]
60 | O=C(COC(=O)c1ccco1)Nc1cc(S(=O)(=O)N2CCCCC2)ccc1Cl | inconclusive: 0.73 µM [inhibitor, single point]
61 | CC(C)COC(=O)c1nnsc1NC(=O)Nc1ccccc1 | inconclusive: 3.66 µM [inhibitor, full curve]
62 | COc1ccc(C2c3c(ncn(CCCN4CCOCC4)c3=N)Oc3ccc4ccccc4c32)cc1OC (centres undefined) | inconclusive: 18.3 µM [activator, partial curve]
63 | CC(C)(C)OC(=O)NCCOC(=O)c1[nH]cnc1C(=O)NCc1ccccc1 | inactive
64 | COc1c(O)cnn(-c2ccccc2)c1=O | inconclusive: 29.1 µM [activator, single point]
65 | CN(C)c1ccc(NC(=O)c2cccc([N+](=O)[O-])c2)c2ccccc12 | inconclusive: 3.98 µM [inhibitor, full curve, poor fit]
66 | Oc1ccc(-c2n[nH]c(=S)n2-c2ccc3c(c2)OCCO3)cc1 | inconclusive: 16.4 µM [activator, single point]
67 | Cc1cc(C(=O)NCc2cccs2)no1 | inactive
68 | Cc1cccc(OCCCSc2nc3ccccc3[nH]2)c1 | inactive
69 | CCOC(=O)C(=O)Nc1ccc(F)cc1 | inconclusive: 29.1 µM [activator, single point]
